Results reported in PubChem BioAssay AID2417 (National Center for Advancing Translational Sciences (NCATS), 2010).
Hit rate of the full screen: of about 140,000 compounds, about 4,300 (3.1%) were called active. The shares of active, inactive and inconclusive entries below differ from those in the screen.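 How the source made its calls: active means readout at or below -70, meaning at least 70% loss of cells showing the perinucleolar compartment, a nuclear body marking cancer cells; inconclusive means readout between -30 and a set limit; inactive means the rest.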

Assay: High Content Assay for Compounds that inhibit the Assembly of the Perinucleolar Compartment;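 further: plate controls were DMSO wells for no effect and camptothecin positive control wells for full effect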
Settings: PC3M PTB-GFP, PNC prevalence imaging, 16 h; at 10 µM; hits give low values
Outline: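 Compounds are pinned in duplicate onto adhered PC3M cells stably expressing GFP-tagged PTB and incubated 16 h at 37 C. Cells are then fixed, nuclei stained with Hoechst, and PNC-positive cells counted.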

Row | SMILES | activity change (PNC), negative = inhibition
1 | COc1ccccc1C(=O)Nc1c2c(nn1-c1cccc(C)c1C)CS(=O)(=O)C2 | inconclusive: -35.7%
2 | CN(C)C=Nc1ncc2c([nH]c3ccccc32)c1C#N | inactive: -19.8%
3 | Cc1ccc2c(CN3CCCc4ccccc43)cc(=O)oc2c1C | inconclusive: -50.5%
4 | CC/C(=N\NC(=O)c1csc(C)c1C)c1cccs1 | inactive: 60.4%
5 | Cc1cc(C)c(NC(=O)c2cc(=O)c3ccccc3o2)c(C)c1 | inactive: 4.01%
6 | O=C1C2CC=CCC2C(=O)N1c1ccc(NCCc2ccc(O)cc2)c([N+](=O)[O-])c1 (configuration not stated) | inactive: -1.81%
7 | O=C(O)COc1ccc(Br)cc1/C=N/O | inactive: -10.3%
8 | Cc1cc2nc(N)sc2cc1C | active: -90.9%
9 | O=C1c2cccnc2C(=O)N1Cc1ccc(F)cc1 | inconclusive: -39.3%
10 | Cc1ccc(-c2csc3ncnc(Oc4ccc5c(C)cc(=O)oc5c4)c23)cc1 | inconclusive: -45.2%
11 | C#CC[N+]1(CC#Cc2ccc(C)cc2)CCCCC1 | inactive: 38.4%
12 | O=C(c1ccc(S(=O)(=O)N2CCOCC2)cc1)N1CCN(c2cccc(Cl)c2)CC1 | inconclusive: -42.7%
13 | Cc1ccc(CNc2ncccc2-c2nc3cc(Cl)ccc3o2)cc1 | inconclusive: -60.8%
14 | COc1cc(C=O)ccc1OCCOc1ccccc1[N+](=O)[O-] | inactive: 35.9%
15 | CCOC(=O)c1cccc(NC(=O)CCS(=O)(=O)c2cccc3nsnc23)c1 | inconclusive: -34.2%
16 | CCOc1ccccc1C(=O)N(CN1CCCC1=O)c1ccc(C)c(Cl)c1 | inconclusive: -61.8%
17 | O=C(CSc1nc2ccccc2o1)N1CCN(S(=O)(=O)c2ccc3ccccc3c2)CC1 | inconclusive: -42.2%
18 | Cc1ccccc1-n1nc2c(c1NC(=O)c1c(-c3ccccc3Cl)noc1C)CS(=O)(=O)C2 | inconclusive: -49.4%
19 | CC(C)C(NC(=O)C1CCCCC1)C(=O)NC1=NCCS1 (configuration not stated) | inconclusive: -38.9%
20 | COc1ccc(CCC(=O)Nc2cccc(Cl)c2)cc1 | active: -82.7%
21 | N#Cc1c(N)nc2c(c1-c1ccc(Br)s1)CCCC2 | inactive: -7.25%
22 | O=C(c1ccc(S(=O)(=O)c2ccccc2Cl)c([N+](=O)[O-])c1)N1CCCCCC1 | active: -105%
23 | O=c1c[n+]([O-])c2ccccc2n1OCc1c(F)cccc1F | inconclusive: -33%

Row | SMILES | activity change (PNC), negative = inhibition
24 | O=C(Nc1ccccc1-c1nc2ccccc2s1)C1=COCCO1 | inactive: -24.1%
25 | O=C(Nc1ccc2c(c1)OCO2)C1CCCN1C(=O)NCc1ccccc1 (configuration not stated) | inactive: -27.7%
26 | CC(C(=O)O)N1C(=O)/C(=C/c2cccn2C)SC1=S (configuration not stated) | inconclusive: -38.7%
27 | Cc1ccc(N/N=C/c2ccc3c(c2)OCCO3)cc1Cl | inconclusive: -54.5%
28 | O=C(/C=C/c1ccccc1)NC1CC2CCC1C2 (configuration not stated) | inconclusive: -35.8%
29 | O=C(NC1CCS(=O)(=O)C1)c1cccc(S(=O)(=O)N2CCOCC2)c1 (configuration not stated) | inconclusive: -54.6%
30 | c1ccc(-c2csc3ncnc(N4CCc5ccccc5C4)c23)cc1 | inconclusive: -33.9%
31 | CCOC(=O)c1c(NC(=O)CSc2n[nH]c(CNc3ccccc3)n2)sc(C)c1C | inactive: -16.3%
32 | CCc1cc2c(=O)n(-c3ccccc3)cnc2s1 | inconclusive: -57.4%
33 | COCc1nnc(NC(=O)CSc2ccc(C)cc2)s1 | inactive: 18.6%
34 | Cc1cc(=O)oc(C)c1C(=O)N1CCN(Cc2ccc3c(c2)OCO3)CC1 | inconclusive: -40.2%
35 | CC(=O)CSc1nnc(Cc2ccc3c(c2)OCO3)o1 | active: -100%
36 | OC(COC(c1ccc(Cl)cc1)c1ccc(Cl)cc1)CN1CCN(c2ccccn2)CC1 (configuration not stated) | inactive: 20%
37 | COc1ccc(-c2cc(C(=O)O)c(C)o2)cc1OC | inconclusive: -31.7%
38 | COc1cccc(-c2nnc(NC(=O)c3ccc(S(=O)(=O)N(CC(C)C)CC(C)C)cc3)o2)c1 | inconclusive: -51.5%
39 | CCCCCC1CCC(C(=O)NNC(=S)NCC)CC1 (configuration not stated) | inactive: 35.3%
40 | CCC(C(=O)Nc1nc(C)cs1)c1ccccc1 (configuration not stated) | inconclusive: -57.3%
41 | COC(=O)NCc1ccc2c(c1)OCO2 | inconclusive: -59.2%
42 | CCCC(=O)N1CCN(c2ccc(NC(=O)c3ccc(Br)o3)cc2)CC1 | inconclusive: -64.6%
43 | Cc1cc2c(c(=O)n1C)C(Cc1ccccc1)C(C#N)=C(N)O2 (configuration not stated) | inactive: 31.9%
44 | Cc1cccc(NC(=O)C2CCCN2S(=O)(=O)c2ccc(F)cc2)c1C (configuration not stated) | inconclusive: -59.2%
45 | O=C(O)c1ccccc1OCCOCCOc1ccccc1C(=O)O | inconclusive: -61.7%
46 | Cc1ccc(C(C)NC(=O)/C(C#N)=C\c2c(C)[nH]c3ccccc23)cc1 (configuration not stated) | inactive: -15.8%

Molecules above that contain sulfur (23):
Row | SMILES | activity change (PNC), negative = inhibition
1 | COc1ccccc1C(=O)Nc1c2c(nn1-c1cccc(C)c1C)CS(=O)(=O)C2 | inconclusive: -35.7%
4 | CC/C(=N\NC(=O)c1csc(C)c1C)c1cccs1 | inactive: 60.4%
8 | Cc1cc2nc(N)sc2cc1C | active: -90.9%
10 | Cc1ccc(-c2csc3ncnc(Oc4ccc5c(C)cc(=O)oc5c4)c23)cc1 | inconclusive: -45.2%
12 | O=C(c1ccc(S(=O)(=O)N2CCOCC2)cc1)N1CCN(c2cccc(Cl)c2)CC1 | inconclusive: -42.7%
15 | CCOC(=O)c1cccc(NC(=O)CCS(=O)(=O)c2cccc3nsnc23)c1 | inconclusive: -34.2%
17 | O=C(CSc1nc2ccccc2o1)N1CCN(S(=O)(=O)c2ccc3ccccc3c2)CC1 | inconclusive: -42.2%
18 | Cc1ccccc1-n1nc2c(c1NC(=O)c1c(-c3ccccc3Cl)noc1C)CS(=O)(=O)C2 | inconclusive: -49.4%
19 | CC(C)C(NC(=O)C1CCCCC1)C(=O)NC1=NCCS1 (configuration not stated) | inconclusive: -38.9%
21 | N#Cc1c(N)nc2c(c1-c1ccc(Br)s1)CCCC2 | inactive: -7.25%
22 | O=C(c1ccc(S(=O)(=O)c2ccccc2Cl)c([N+](=O)[O-])c1)N1CCCCCC1 | active: -105%
24 | O=C(Nc1ccccc1-c1nc2ccccc2s1)C1=COCCO1 | inactive: -24.1%
26 | CC(C(=O)O)N1C(=O)/C(=C/c2cccn2C)SC1=S (configuration not stated) | inconclusive: -38.7%
29 | O=C(NC1CCS(=O)(=O)C1)c1cccc(S(=O)(=O)N2CCOCC2)c1 (configuration not stated) | inconclusive: -54.6%
30 | c1ccc(-c2csc3ncnc(N4CCc5ccccc5C4)c23)cc1 | inconclusive: -33.9%
31 | CCOC(=O)c1c(NC(=O)CSc2n[nH]c(CNc3ccccc3)n2)sc(C)c1C | inactive: -16.3%
32 | CCc1cc2c(=O)n(-c3ccccc3)cnc2s1 | inconclusive: -57.4%
33 | COCc1nnc(NC(=O)CSc2ccc(C)cc2)s1 | inactive: 18.6%
35 | CC(=O)CSc1nnc(Cc2ccc3c(c2)OCO3)o1 | active: -100%
38 | COc1cccc(-c2nnc(NC(=O)c3ccc(S(=O)(=O)N(CC(C)C)CC(C)C)cc3)o2)c1 | inconclusive: -51.5%
39 | CCCCCC1CCC(C(=O)NNC(=S)NCC)CC1 (configuration not stated) | inactive: 35.3%
40 | CCC(C(=O)Nc1nc(C)cs1)c1ccccc1 (configuration not stated) | inconclusive: -57.3%
44 | Cc1cccc(NC(=O)C2CCCN2S(=O)(=O)c2ccc(F)cc2)c1C (configuration not stated) | inconclusive: -59.2%

The listing continues:

Row | SMILES | activity change (PNC), negative = inhibition
47 | CCOCCn1c(CN2CCN(c3cccc(Cl)c3)CC2)nc2c1c(=O)n(C)c(=O)n2C | inconclusive: -50.4%
48 | CN(C)c1ccc(-c2nn3c(-c4ccc(Cl)cc4Cl)nnc3s2)cc1 | inactive: 35.3%
49 | COc1cc(CNCCSc2nnnn2C)cc(Br)c1OCc1ccc(F)cc1 | inconclusive: -65%
50 | CCSC1=C(C#N)C(c2ccccc2Cl)CC(=O)N1 (configuration not stated) | inactive: -10.3%
51 | O=C1CC(c2ccccc2F)c2cc3c(cc2N1)CCC3 (configuration not stated) | inactive: -9.04%
52 | Cc1c(C(=O)N(Cc2cccs2)C2CCS(=O)(=O)C2)oc2ccccc12 (configuration not stated) | inconclusive: -39.9%
53 | COc1cc(C(=O)NCc2ccc(-c3nc4ccccc4s3)cc2)cc(OC)c1OC | inconclusive: -67.3%
54 | O=C(Nc1ccccc1)c1c(F)cccc1F | inconclusive: -62%
55 | C=CCSc1nc2ccccc2n1S(=O)(=O)c1ccc(C)cc1 | inconclusive: -79.1%
56 | Cc1ccc(Nc2nc(N)c([N+](=O)[O-])c(NCc3ccco3)n2)cc1C | inactive: 60.8%
57 | Cc1cc(C(=O)CN2CCC(C)CC2)c(C)n1-c1ccccc1F | inactive: -16.2%
58 | COC(=O)c1ccc2c(c1)S(=O)(=O)NC(=NCc1ccco1)S2 | inactive: 18.1%
59 | Cc1cc(C)cc(-c2nnc(SCC(=O)N3CCN(C(=O)c4ccco4)CC3)o2)c1 | inconclusive: -69.6%
60 | CCOC(=O)c1cc(NC(=O)Nc2ccc(OC)c(OC)c2)c(C)nc1C | active: -102%
61 | CCOc1ccc2nc(NC(=O)CSc3nc4c(c(=O)n(C)c(=O)n4C)n3C(C)C)sc2c1 | inconclusive: -53.7%
62 | CC(C)(C)c1ccc(OCC(=O)OCCNC(=O)c2cccnc2)cc1 | inconclusive: -53.5%
63 | O=S(=O)(c1ccccc1)N1CCN=C1SCc1cccc(Cl)c1 | inconclusive: -52.5%
64 | COc1ccc(C(=O)OCCN2C(=O)c3ccccc3C2=O)cc1 | inconclusive: -67%
65 | CC(C)NC(=O)CSc1nc(-c2cccs2)cc(-c2ccccc2)c1C#N | inactive: 3.14%
66 | Cc1cc(C)n(CC(=O)NCc2cc(-c3nn(C)c(=O)c4ccccc34)ccc2C)n1 | inconclusive: -46%
67 | Fc1ccc(CSc2nc3ncccc3[nH]2)cc1 | inactive: 28.1%
68 | Cc1nc2scc(-c3ccccc3)c2c(=O)n1N | inconclusive: -40.5%
69 | Cc1ccc(N(CC(=O)N/N=C/c2cccc(Br)c2)S(C)(=O)=O)cc1 | inconclusive: -69.7%

Pulled by compound from above, 2 records:
Row | SMILES | activity change (PNC), negative = inhibition
62 | CC(C)(C)c1ccc(OCC(=O)OCCNC(=O)c2cccnc2)cc1 | inconclusive: -53.5%
48 | CN(C)c1ccc(-c2nn3c(-c4ccc(Cl)cc4Cl)nnc3s2)cc1 | inactive: 35.3%

More compounds.

Row | SMILES | activity change (PNC), negative = inhibition
70 | Cc1nc2nc(C)c(CCC(=O)NCCC3=CCCCC3)c(C)n2n1 | inconclusive: -38.7%
71 | O=C(CSc1nnc(Cc2ccccc2)o1)N1CCCc2ccccc21 | inactive: -15.4%
72 | Cc1ccccc1S(=O)(=O)Cc1ccc(C(=O)N2CCN(c3ccc(F)cc3)CC2)o1 | inconclusive: -32.1%
73 | Cc1ccc2c(c1)c1c(n2C)C(=O)CCC1 | inconclusive: -30.6%
74 | COc1ccc(-c2cc(-c3cc(F)ccc3O)[nH]n2)cc1OC | inactive: 14.7%
75 | C=CCOC(=O)c1ccc(-n2cncn2)nc1 | inconclusive: -45.5%
76 | O=C(CCCn1c(=S)[nH]c2cc3c(cc2c1=O)OCO3)NC1CC1 | inconclusive: -31.8%
77 | CCOc1ccccc1OCCn1ncc2ccc(OC)c(OC)c2c1=O | inactive: 15.2%
78 | CCNc1nc2nonc2nc1NCC | inconclusive: -33.2%
79 | Cc1cc(C)c(C(CC(=O)c2cccs2)C(C#N)C#N)c(C)c1 (configuration not stated) | inconclusive: -40.9%
80 | Cc1cccc(N2CCN(S(=O)(=O)c3cnc[nH]3)CC2)c1C | inconclusive: -48.5%
81 | Cc1ccc(-n2cc(-c3ccccc3)c3c(NN4CCOCC4)ncnc32)cc1 | inconclusive: -74.8%
82 | COc1ccc(-c2csc(NC(=O)CSc3ccc(Br)cc3)n2)c(OC)c1 | inconclusive: -59.3%
83 | COc1cc(Br)cc2cc(C(=O)N3CCN(C(=O)c4ccco4)CC3)c(=O)oc12 | inactive: 3.53%
84 | CCN(CC(=O)N1CCOCC1)S(=O)(=O)c1ccc(C)cc1 | inconclusive: -45.1%
85 | COc1ccc(C(=O)Cc2ccccc2)cc1OC | active: -83.9%
86 | C=CCn1c(O)c(CN2CCN(Cc3ccccc3)CC2)c(C)c(C#N)c1=O | inconclusive: -30.4%
87 | O=C(c1ccncc1)N1CCN(c2ccc(F)cc2)CC1 | inconclusive: -40.6%
88 | CN(C)CCCN1c2ccccc2Sc2ccc(C(F)(F)F)cc21 | active: -115%
89 | Oc1ccc2oc3c(c2c1/C=N/n1cnnc1)CCCC3 | inconclusive: -48.9%
90 | Cc1nc2c3c4c(sc3n3c(SCC(=O)NCc5ccco5)nnc3n2n1)COC(C)(C)C4 | inconclusive: -44.5%
91 | COc1cccc(CSc2nnc(-c3ccc(F)cc3)o2)c1 | inconclusive: -38.5%
92 | CC(Sc1nc(-c2ccccc2)cc(C(F)(F)F)n1)C(=O)Nc1sc2c(c1C#N)CCC2 (configuration not stated) | inactive: -20.2%
